Taken from: PubChem BioAssay AID1259425 (University of Nebraska Medical Center, 2018)

- Purpose: 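Seek colon cancer weak points whose silencing resembles KSR1 loss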 (primary screen)
- System: HCT116 human colon cancer cells
- Reagent: siRNA pool against human genes, 50 nM siRNA
- Measured: 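After 50 nM siRNA pool, branched-DNA assay measures six marker transcripts per well, minus blank, normalised to the geometric mean of two housekeeping transcripts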
- Scale: BNIP3L mRNA: higher = more BNIP3L transcript after knockdown; NDRG1 mRNA: higher = more NDRG1 transcript after knockdown; BNIP3 mRNA: higher = more BNIP3 transcript after knockdown; ALDOC mRNA: higher = more ALDOC transcript after knockdown; ACSL5 mRNA: higher = more ACSL5 transcript after knockdown
Here is one part, drawn at random, of about 14,000 reagents. Not stated in the record: the time to read-out.

gene,"BNIP3L mRNA, set 1","NDRG1 mRNA, set 1","BNIP3 mRNA, set 1","ALDOC mRNA, set 1","ACSL5 mRNA, set 1"
BAMBI,0.182,0.274,0.459,0.0386,0.184
MAPRE2,0.0853,0.0609,0.331,0.0303,0.0802
ADAM18,0.151,0.188,0.302,0.0227,0.262
MLKL,0.117,0.109,0.4,0.0304,0.249
IQCE,0.118,0.181,0.42,0.0379,0.0876
TPCN2,0.109,0.107,0.299,0.0119,0.0953
TSNAX,0.144,0.133,0.351,0.0306,0.262
TNNC1,0.146,0.133,0.355,0.0313,0.144
KRT83,0.112,0.207,0.312,0.0151,0.0827
TACC1,0.132,0.189,0.345,0.0253,0.141
SLC26A1,0.0348,0.269,0.117,0.0129,0.268
AGTR1,0.211,0.37,0.597,0.0337,0.267
ASCL1,0.172,0.106,0.238,0.0106,0.155
MAT1A,0.0921,0.211,0.278,0.0416,0.131
MRTO4,0.0921,0.399,0.24,0.0167,0.139
PEX14,0.0883,0.16,0.16,0.007,0.115
SULT2A1,0.0935,0.138,0.303,0.019,0.225
IRAK2,0.0915,0.254,0.57,0.00805,0.28
FGF6,0.0996,0.291,0.284,0.0449,0.174
GABRB3,0.05,0.486,0.215,0.0257,0.171
